Measured values published in patent US5726159A, “Antithrombotic agents” (Eli Lilly and Company, priority 1995, dated 1998).
Structures can show the parent of a compound that is named as a salt. For at least one compound, name, drawing or mass did not settle the structure.

Target: human thrombin (Homo sapiens, UniProt P00734)
Assay: Inhibition of thrombin amidase activity (Kass), chromogenic substrate
Type: biochemical
Settings: association constant, mean over concentrations
With `CCS(=O)(=O)N[C@H](CC1CCCCC1)C(=O)N1CCC[C@H]1C(=O)NCc1ccc(C(=N)N)cc1` [Example 80, EtSO2 -D-Cha-Pro-4-NHCH2 C6 H4 C(NH)NH2.HCl] the “Kass Human Thrombin” value was 1,700. × 10^6 (L/mole).

System: not listed separately
Assay: Index of bioavailability (% relative activity from plasma TT, oral vs i.v.)
Type: in vivo
Design: key: NC^1: screening not completed; low or very low activity observed on 20 mg/kg p.o.; NC^2: screening not completed; low or very low activity observed at 60 mg/kg p.o.; NC^3: screening not completed; low or very low activity observed at 50 mg/kg p.o
Settings: p.o. dose per legend
Experimental: Plasma thrombin time (TT) and activated partial thromboplastin time (APTT) are measured with a fibrometer. […] Parke Davis) at 37° C. […] Assays are done in duplicate and averaged. A measure of bioactivity, plasma thrombin time (TT), served as a substitute for the assay of parent compound on the assumption that increments in TT resulted from thrombin inhibition by parent only. The time course of the effect of the thrombin inhibitor upon TT is determined after i.v. bolus administration to anesthetized rats and after oral treatment of fasted conscious rats. Due to limitations of blood volume and the number of points required to determine the time course from time of treatment to the time when the response returned to pretreatment values, two populations of rats are used. Each sample population represented alternating sequential time points. The average TT over the time course is used to calculate area under the curve (AUC). The index of bioavailability is calculated by the formula shown below and is expressed as percent relative activity. The area under the curve (AUC) of the plasma TT time course is determined and adjusted for the dose. […] Bolus injection volume is 1 mL/kg for i.v., and 5 mL/kg for p.o. and infusion volume is 3 mL/hr.
For `N=C(N)c1ccc(CNC(=O)[C@@H]2C[C@@H]3CCCC[C@@H]3N2C(=O)[C@@H]2NCC[C@@H]3CCCC[C@@H]32)cc1` (relative stereo) [Example 42, D-1-Piq-cis-Ohi-p-NHCH2 C6 H4 C(NH)NH2.2HCl], the “% oral/i.v. activity (Rat), screening not completed” value was “NC^2”.
With `N=C(N)c1ccc(CNC(=O)[C@@H]2C[C@@H]3CCCC[C@@H]3N2C(=O)[C@@H](CC2CCCCC2)NCC(=O)O)cc1` (relative stereo) [Example 49, HOOCCH2 -D-Cha-cis-Ohi-p-NHCH2 C6 H4 C(NH)NH2.HCl] the “% oral/i.v. activity (Rat), screening not completed” value was “NC^2”.
In the case of `N=C(N)c1cc(F)c(CNC(=O)[C@@H]2CCCN2C(=O)[C@@H](CC2CCCCC2)NCC(=O)O)c(F)c1` [Example 72, HO2 CCH2 -D-Cha-Pro-4-NHCH2 -3,5-F2 -benzamidine.HCl], the “% oral/i.v. activity (Rat), screening not completed” value is reported as “NC^1”.
For `CCS(=O)(=O)N[C@H](Cc1ccccc1)C(=O)N1[C@H](C(=O)NCc2ccc(C(=N)N)cc2)C[C@@H]2CCCC[C@@H]21` (relative stereo) [Example 45, EtSO2 -Phe-cis-Ohi-p-NHCH2 C6 H4 C(NH)NH2.HCl], the “% oral/i.v. activity (Rat), screening not completed” value was “NC^2”.
With `N=C(N)c1ccc(CNC(=O)[C@@H]2C[C@@H]3CCCC[C@@H]3N2C(=O)[C@@H](Cc2ccccc2)NCC(=O)O)cc1` (relative stereo) [Example 47, HOOCCH2 -D-Phe-cis-Ohi-p-NHCH2 C6 H4 C(NH)NH2.HCl] the “% oral/i.v. activity (Rat), screening not completed” value was “NC^2”.
In the case of `N=C(N)c1ccc(CNC(=O)[C@@H]2CCCN2C(=O)[C@@H](CC2CCCCC2)NCC(=O)O)c(F)c1` [Example 71, HO2 CCH2 -D-Cha-Pro-4-NHCH2 -3-F-benzamidine.HCl], the “% oral/i.v. activity (Rat), screening not completed” value is reported as “NC^1”.
